PubChem BioAssay AID1159578 – Peter MacCallum Cancer Centre – 2015

- Purpose: 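Knock-downs that alter how fast lymphatic endothelial cells migrate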 (primary screen)
- Cell system: human lymphatic endothelial cells
- Reagent: siRNA pool against human genes, 40 nM
- Duration: 48 h after transfection
- Measurement: 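Cells stained with dye and imaged after a scratch; covered wound area and nuclei counted, duplicates averaged, migration set against mock wells and turned into a robust z-score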
- Direction: migration robust z-score: higher = faster migration into the scratch; nuclei per well: higher = more cells in the well
- Call rule: 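Migration changed when robust z exceeds 2 or falls below -2 and mean nuclei number is at least 3300; otherwise not called changed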
- Calls: active = migration changed; inactive = no migration change, or too few cells
Here is one part, drawn at random, of about 18,000 reagents. Of all reagents, about 1,030 (5.7%) got an active call. 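Inactive calls also include pools with fewer than 3300 nuclei, whose migration was not assessed.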 The raw values are shown without normalisation. Further read-outs or replicates are left out here.

What is on record for MYO1F?
migration robust z-score: -0.03; migration class with cell-count check: migration z between -2 and 2; enough cells; nuclei per well, duplicate mean: 5400; activity call: inactive

What did the screen give for UGCG?
migration robust z-score: 0.06; migration class with cell-count check: migration z between -2 and 2; enough cells; nuclei per well, duplicate mean: 6149; activity call: inactive

How did the screen score DHX15?
migration robust z-score: 0.65; migration class with cell-count check: migration z between -2 and 2; enough cells; nuclei per well, duplicate mean: 5810; activity call: inactive

How did the screen score DCD?
migration robust z-score: 2.1; migration class with cell-count check: migration z above 2; enough cells; nuclei per well, duplicate mean: 6074; activity call: active

With POPDC2, what was measured?
migration robust z-score: -0.3; migration class with cell-count check: migration z between -2 and 2; enough cells; nuclei per well, duplicate mean: 4985; activity call: inactive

With ACSM2A, what does the deposit list?
migration robust z-score: -0.56; migration class with cell-count check: migration z between -2 and 2; enough cells; nuclei per well, duplicate mean: 5697; activity call: inactive

For PGK2, what does the deposit list?
migration robust z-score: -1.02; migration class with cell-count check: migration z between -2 and 2; enough cells; nuclei per well, duplicate mean: 4450; activity call: inactive

Which result is listed for KMT5C?
migration robust z-score: 0.05; migration class with cell-count check: migration z between -2 and 2; enough cells; nuclei per well, duplicate mean: 4843; activity call: inactive

For BTN3A1, what was measured?
migration robust z-score: 0.16; migration class with cell-count check: migration z between -2 and 2; enough cells; nuclei per well, duplicate mean: 5100; activity call: inactive

With SFT2D1, how do the results read?
migration robust z-score: 0.8; migration class with cell-count check: migration z between -2 and 2; enough cells; nuclei per well, duplicate mean: 5280; activity call: inactive

What did the screen give for DEFB113?
migration robust z-score: 0.7; migration class with cell-count check: migration z between -2 and 2; enough cells; nuclei per well, duplicate mean: 6714; activity call: inactive

No new results follow: 3 of the entries above.
PGK2: migration robust z-score = -1.02; migration class with cell-count check = migration z between -2 and 2; enough cells; nuclei per well, duplicate mean = 4450; activity call = inactive
KMT5C: migration robust z-score = 0.05; migration class with cell-count check = migration z between -2 and 2; enough cells; nuclei per well, duplicate mean = 4843; activity call = inactive
BTN3A1: migration robust z-score = 0.16; migration class with cell-count check = migration z between -2 and 2; enough cells; nuclei per well, duplicate mean = 5100; activity call = inactive

The listing continues:
Which result is listed for IL23R?
migration robust z-score: 1.56; migration class with cell-count check: migration z between -2 and 2; enough cells; nuclei per well, duplicate mean: 5354; activity call: inactive

Which result is listed for MIXL1?
migration robust z-score: 0.49; migration class with cell-count check: migration z between -2 and 2; enough cells; nuclei per well, duplicate mean: 6338; activity call: inactive

What did the screen give for KYAT1?
migration robust z-score: -0.06; migration class with cell-count check: migration z between -2 and 2; enough cells; nuclei per well, duplicate mean: 5408; activity call: inactive

What did the screen give for WDR20?
migration robust z-score: 0.06; migration class with cell-count check: migration z between -2 and 2; enough cells; nuclei per well, duplicate mean: 5586; activity call: inactive

With MMP25, how do the results read?
migration robust z-score: -1.77; migration class with cell-count check: migration z between -2 and 2; enough cells; nuclei per well, duplicate mean: 5230; activity call: inactive

With KDM2B, what was measured?
migration robust z-score: -1.32; migration class with cell-count check: migration z between -2 and 2; enough cells; nuclei per well, duplicate mean: 5198; activity call: inactive

For TLCD3B, what was measured?
migration robust z-score: -0.03; migration class with cell-count check: migration z between -2 and 2; enough cells; nuclei per well, duplicate mean: 5431; activity call: inactive

What is on record for TSPAN9?
migration robust z-score: 0.83; migration class with cell-count check: migration z between -2 and 2; enough cells; nuclei per well, duplicate mean: 6628; activity call: inactive

What is on record for ATP6V1B1?
migration robust z-score: -0.65; migration class with cell-count check: migration z between -2 and 2; enough cells; nuclei per well, duplicate mean: 5204; activity call: inactive

How did the screen score TSPAN13?
migration robust z-score: 0.02; migration class with cell-count check: migration z between -2 and 2; enough cells; nuclei per well, duplicate mean: 7403; activity call: inactive
